From patent publication US20220289854A1
Results are given in words; binding and its absence hold for the method and conditions named. Binding calls can cover weak binding; strength is not graded here.

What was measured:
[1] = biological target: mouse CX3CR1 (mouse); test: flow cytometry on CT26 cells, 10 µg/ml
[2] = biological target: mouse CX3CR1 (mouse); test: flow cytometry titration on Jurkat cells transfected with mCX3CR1
[3] = biological target: mouse CX3CR1 (mouse); test: flow cytometry on Jurkat cells transfected with mCX3CR1 (FIG. 1 legend)
[4] = biological target: mouse CX3CR1 (mouse); test: Western blot of CT26, 4T1, GL261, ID8 lysates (1 µg/ml) and flow cytometry on 4T1 and GL261 cells (10 µg/ml)

binding [1]: binds
binding [2]: binds
binding [3]: binds
binding [4]: binds
B1: 455.1C11 anti-mouse CX3CR1 monoclonal antibody (antibody, V domains shown)
VH: QVQLVETGGGLVRPGNSLKLSCVTSGFTFSNYRMHWLRQFPGKRLEWIAVIAFKSDKFGANYAESVKGRFAISRDDSKNSVYLEMSRLREEDTATYFCSRDGNGPFDYWGQGTTLTVSS
VL: DIVMSQSPSSLTVSVGEKVTMSCKSSQSLLYSGNQKSYLAWYQQKPGQSPRLLIYWASTRESGVPDRFTGSGSGTDFTLTISGVKAEDLAVYYCQRYYGYPRTFGGGTKLEIK
